# Data taken from PubChem BioAssay AID2685 (National Center for Advancing Translational Sciences (NCATS), 2010).
# Some of the results follow. Shown are side measurements of this screen, not its main read-out; they come without a call. The list favours compounds with an active or inconclusive main result. Words in brackets tell the shape of the fitted curve; partial curves, single points and poor fits give uncertain potencies.
# Experiment: qHTS Assay for Lipid Storage Modulators in Drosophila S3 Cells;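 for cell number change: cells counted by Cell Tracker Red CMTPX staining in the red channel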
# Settings: BODIPY lipid droplet fluorescence, 18-24 h; for cell number change: measured here: cell count max response, cells fed with added oleic acid
# Procedure, shortened: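 Drosophila S3 cells got compounds at several concentrations plus oleic acid (400 uM solution). Laser-scanning cytometry with 488 nm excitation read lipid droplets at 500-530 nm and cells at 575-640 nm. Percent activity was relative to 20 uM Triacsin C.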
# [1] = measured here: cell number channel AC50, cells fed with added oleic acid
# [2] = measured here: lipid fluorescence (Fed channel) AC50, cells fed with added oleic acid
SMILES,cell number change,AC50 [1],AC50 [2]
O=CC(=O)c1ccccc1,4.72%,"1.16 µM [falling, single point]",–
O=C(Nc1cc2c3c(c1)CC(=O)N3CCC2)c1ccc(Br)o1,–,"1.16 µM [rising, full curve]",–
COc1ccc(N2CCN(CCOc3ccc4c(C)cc(=O)oc4c3)CC2)cc1,44.3%,"13 µM [rising, partial curve, poor fit]","20.6 µM [rising, partial curve]"
CCOCCCN(CCC#N)C(=O)C1CCN(S(=O)(=O)c2ccc(-n3cnnn3)cc2)CC1,8.11%,–,"29.1 µM [rising, single point]"
C#CCOc1coc(COC(=O)c2ccccc2)cc1=O,-11.8%,–,"6.51 µM [falling, single point]"
Cc1ccc2c(c1)C1CN(C)CCC1N2C(=O)c1cccc(S(=O)(=O)N(C)C)c1 (stereo unspecified),-79.2%,–,–
COc1cc2c3nc4n(c(=O)c3n(CC(=O)NCC3CCCO3)c2cc1OC)CCS4 (stereo unspecified),17.6%,–,"6.51 µM [rising, single point]"
CC(C)/C(=N/Nc1ccccc1[N+](=O)[O-])c1ccccc1,–,–,"2.59 µM [falling, partial curve]"
NC(=O)CC(NC(=O)c1ccc(Br)cc1)c1ccc(NCc2ccc(F)c(F)c2)c([N+](=O)[O-])c1 (stereo unspecified),23.9%,–,"13 µM [rising, partial curve, poor fit]"
COc1ccccc1N(C(=O)CN1C(=O)c2ccccc2S1(=O)=O)C(C(=O)NCC1CCCO1)c1ccc(F)cc1 (stereo unspecified),-4.46%,–,"29.1 µM [falling, single point]"
Cc1cc2cc(CCNC(=O)CC(C)C)c(=O)[nH]c2cc1C,3.19%,–,"18.4 µM [rising, single point]"
Cc1cccc(C)c1NC(=O)CNC(=O)c1ccc(N2CCCC2)c([N+](=O)[O-])c1,-21.4%,"0.146 µM [falling, full curve, poor fit]","0.231 µM [falling, full curve]"
Cc1ccccc1COC(=O)CNC(=O)c1sc2ccccc2c1Cl,-67%,"29.1 µM [falling, single point]",–
Fc1ccc(-n2cc(CNCCc3ccncc3)c(-c3ccccc3Cl)n2)cc1,-22.3%,–,"0.116 µM [falling, full curve, poor fit]"
Cc1cccn2c(=O)c(/C=C(\C#N)C(=O)NC3CCS(=O)(=O)C3)c(N3CCC(C)CC3)nc12 (stereo unspecified),-23.8%,"0.82 µM [rising, partial curve, poor fit]","1.16 µM [rising, full curve, poor fit]"
Cc1ccc(C)c(NC(=O)C2CCCN(c3cnccn3)C2)c1 (stereo unspecified),10.6%,–,"6.51 µM [rising, single point]"
CCc1ccccc1S(=O)(=O)Cc1ccc(C(=O)NCc2cccs2)o1,22%,"0.00461 µM [rising, full curve, poor fit]","0.00517 µM [rising, full curve, poor fit]"
S=C(NCCCc1ccccc1)Nc1ccc(Br)cc1,18.5%,–,"29.1 µM [falling, single point]"
O=C(CCN1CCCC1=O)NC1CCCc2c1cnn2-c1ccc(F)cc1F (stereo unspecified),–,–,"6.51 µM [rising, single point]"
Cn1cnc2cc(NCc3ccc(Cl)cc3)ccc21,-41.7%,"4.61 µM [falling, partial curve, poor fit]","4.11 µM [falling, full curve]"
CSc1ncc(CN2CCC(C(=O)Nc3cccc(-c4cscn4)c3)CC2)cn1,-20.2%,–,"29.1 µM [falling, partial curve, poor fit]"
CCOC(=O)c1nn(-c2ccc(C)cc2)c(C)c1C(C)=O,47.8%,"16.4 µM [rising, partial curve, poor fit]","1.16 µM [rising, full curve]"
CCc1ccc2[nH]c(=O)c(CN(Cc3nnnn3C3CCCC3)C3CCCCC3)cc2c1,-16%,–,–
O=S(=O)(/C(=C/c1ccc(C(F)(F)F)cc1)c1nc2ccccc2[nH]1)c1ccccc1,-32.6%,"18.4 µM [falling, single point]","23.1 µM [falling, partial curve]"
Cc1cccc(NC(=O)/C(C#N)=C\c2cn(CC(=O)O)c3ccccc23)c1,-2.55%,–,"16.4 µM [falling, single point]"
CCCS(=O)(=O)N1CCCC(C(=O)Nc2ccc3c(c2)CCC3)C1 (stereo unspecified),20.6%,–,"20.6 µM [rising, single point]"
CCOc1ccc(NC(=O)CCC(=O)Nc2nnc(CC)s2)cc1,7.55%,–,"29.1 µM [falling, single point]"

# Among those listed so far, these have a thiophene ring, fused or not:
SMILES,cell number change,AC50 [1],AC50 [2]
Cc1ccccc1COC(=O)CNC(=O)c1sc2ccccc2c1Cl,-67%,"29.1 µM [falling, single point]",–
CCc1ccccc1S(=O)(=O)Cc1ccc(C(=O)NCc2cccs2)o1,22%,"0.00461 µM [rising, full curve, poor fit]","0.00517 µM [rising, full curve, poor fit]"
